{"sequences": {"note": "Amino acid sequences for entries named in this document (tags omitted). A change or cut given only in a name is not applied to a line headed by its entry.", "UniProt Q01850": "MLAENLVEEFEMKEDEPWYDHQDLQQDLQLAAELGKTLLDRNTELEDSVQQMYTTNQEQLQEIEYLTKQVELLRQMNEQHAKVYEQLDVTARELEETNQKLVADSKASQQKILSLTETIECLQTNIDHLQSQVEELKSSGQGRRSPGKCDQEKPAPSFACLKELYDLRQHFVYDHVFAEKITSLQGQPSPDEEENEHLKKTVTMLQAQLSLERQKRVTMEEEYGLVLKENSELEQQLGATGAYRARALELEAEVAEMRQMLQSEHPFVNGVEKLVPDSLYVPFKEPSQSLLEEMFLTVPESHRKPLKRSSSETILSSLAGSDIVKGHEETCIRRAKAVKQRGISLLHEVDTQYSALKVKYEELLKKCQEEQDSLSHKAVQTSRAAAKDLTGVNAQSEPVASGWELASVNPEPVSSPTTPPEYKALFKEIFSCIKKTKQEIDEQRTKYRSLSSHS", "UniProt Q03181": "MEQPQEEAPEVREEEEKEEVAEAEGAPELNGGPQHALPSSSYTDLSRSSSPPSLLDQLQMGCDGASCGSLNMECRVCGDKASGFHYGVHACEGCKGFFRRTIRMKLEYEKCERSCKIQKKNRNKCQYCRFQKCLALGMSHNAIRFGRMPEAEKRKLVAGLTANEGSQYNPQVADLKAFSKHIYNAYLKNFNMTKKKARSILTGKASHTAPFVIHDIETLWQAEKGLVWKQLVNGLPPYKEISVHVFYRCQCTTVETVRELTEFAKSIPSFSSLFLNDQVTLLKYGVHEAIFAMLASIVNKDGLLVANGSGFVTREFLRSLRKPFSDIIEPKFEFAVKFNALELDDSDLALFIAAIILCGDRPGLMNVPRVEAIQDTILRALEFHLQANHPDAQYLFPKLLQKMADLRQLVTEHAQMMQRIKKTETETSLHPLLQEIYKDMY", "UniProt Q00169": "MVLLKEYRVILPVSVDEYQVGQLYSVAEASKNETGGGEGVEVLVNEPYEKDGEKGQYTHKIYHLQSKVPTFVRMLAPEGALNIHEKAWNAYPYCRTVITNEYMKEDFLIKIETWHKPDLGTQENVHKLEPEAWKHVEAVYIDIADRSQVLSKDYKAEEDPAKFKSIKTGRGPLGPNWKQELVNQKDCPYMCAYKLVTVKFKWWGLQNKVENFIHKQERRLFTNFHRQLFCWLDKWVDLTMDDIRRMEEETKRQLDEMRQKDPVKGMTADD", "UniProt Q00325": "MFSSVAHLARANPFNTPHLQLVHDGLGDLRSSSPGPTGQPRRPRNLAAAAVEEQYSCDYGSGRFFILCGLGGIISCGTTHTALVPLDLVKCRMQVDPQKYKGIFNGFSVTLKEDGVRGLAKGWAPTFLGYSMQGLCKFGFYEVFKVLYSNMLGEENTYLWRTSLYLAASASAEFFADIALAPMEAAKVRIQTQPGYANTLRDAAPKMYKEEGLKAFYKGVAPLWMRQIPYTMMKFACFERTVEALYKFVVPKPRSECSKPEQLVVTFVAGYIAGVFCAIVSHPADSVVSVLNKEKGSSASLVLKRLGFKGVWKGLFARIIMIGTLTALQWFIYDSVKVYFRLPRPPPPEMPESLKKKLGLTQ", "UniProt Q01085": "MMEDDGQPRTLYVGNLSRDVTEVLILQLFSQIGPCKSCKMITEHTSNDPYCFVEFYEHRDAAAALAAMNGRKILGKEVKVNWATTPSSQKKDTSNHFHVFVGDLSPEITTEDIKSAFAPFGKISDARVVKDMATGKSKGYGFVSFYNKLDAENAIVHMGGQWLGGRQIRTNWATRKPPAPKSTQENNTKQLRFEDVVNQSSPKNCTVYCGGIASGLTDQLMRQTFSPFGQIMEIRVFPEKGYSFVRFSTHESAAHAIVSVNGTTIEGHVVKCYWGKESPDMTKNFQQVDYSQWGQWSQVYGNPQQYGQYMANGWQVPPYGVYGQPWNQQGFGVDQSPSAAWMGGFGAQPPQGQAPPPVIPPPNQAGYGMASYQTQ", "UniProt Q12959, whole entry, looked up": "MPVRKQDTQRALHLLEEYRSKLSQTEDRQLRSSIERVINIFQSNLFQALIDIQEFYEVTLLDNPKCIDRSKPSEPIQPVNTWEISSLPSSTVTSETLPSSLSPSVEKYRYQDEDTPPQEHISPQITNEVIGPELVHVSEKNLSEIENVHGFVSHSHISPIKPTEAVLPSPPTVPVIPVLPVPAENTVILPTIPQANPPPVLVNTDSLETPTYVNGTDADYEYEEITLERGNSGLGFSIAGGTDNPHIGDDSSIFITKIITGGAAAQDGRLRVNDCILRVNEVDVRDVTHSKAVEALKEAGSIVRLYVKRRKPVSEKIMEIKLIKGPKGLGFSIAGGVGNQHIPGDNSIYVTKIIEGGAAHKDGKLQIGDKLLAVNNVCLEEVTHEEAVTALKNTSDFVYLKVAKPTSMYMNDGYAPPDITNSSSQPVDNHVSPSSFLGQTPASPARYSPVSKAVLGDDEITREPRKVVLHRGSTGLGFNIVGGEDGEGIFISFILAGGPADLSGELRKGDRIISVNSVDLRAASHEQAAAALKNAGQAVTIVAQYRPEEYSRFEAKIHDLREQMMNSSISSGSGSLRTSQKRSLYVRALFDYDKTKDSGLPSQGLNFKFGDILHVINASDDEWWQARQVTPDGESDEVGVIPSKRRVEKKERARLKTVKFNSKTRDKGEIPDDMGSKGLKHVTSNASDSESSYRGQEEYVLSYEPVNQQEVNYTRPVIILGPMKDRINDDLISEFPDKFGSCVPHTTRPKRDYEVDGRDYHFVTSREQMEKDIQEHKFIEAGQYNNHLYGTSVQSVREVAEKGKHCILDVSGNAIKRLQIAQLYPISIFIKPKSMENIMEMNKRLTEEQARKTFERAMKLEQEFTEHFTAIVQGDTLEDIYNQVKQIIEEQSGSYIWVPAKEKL", "UniProt Q07157": "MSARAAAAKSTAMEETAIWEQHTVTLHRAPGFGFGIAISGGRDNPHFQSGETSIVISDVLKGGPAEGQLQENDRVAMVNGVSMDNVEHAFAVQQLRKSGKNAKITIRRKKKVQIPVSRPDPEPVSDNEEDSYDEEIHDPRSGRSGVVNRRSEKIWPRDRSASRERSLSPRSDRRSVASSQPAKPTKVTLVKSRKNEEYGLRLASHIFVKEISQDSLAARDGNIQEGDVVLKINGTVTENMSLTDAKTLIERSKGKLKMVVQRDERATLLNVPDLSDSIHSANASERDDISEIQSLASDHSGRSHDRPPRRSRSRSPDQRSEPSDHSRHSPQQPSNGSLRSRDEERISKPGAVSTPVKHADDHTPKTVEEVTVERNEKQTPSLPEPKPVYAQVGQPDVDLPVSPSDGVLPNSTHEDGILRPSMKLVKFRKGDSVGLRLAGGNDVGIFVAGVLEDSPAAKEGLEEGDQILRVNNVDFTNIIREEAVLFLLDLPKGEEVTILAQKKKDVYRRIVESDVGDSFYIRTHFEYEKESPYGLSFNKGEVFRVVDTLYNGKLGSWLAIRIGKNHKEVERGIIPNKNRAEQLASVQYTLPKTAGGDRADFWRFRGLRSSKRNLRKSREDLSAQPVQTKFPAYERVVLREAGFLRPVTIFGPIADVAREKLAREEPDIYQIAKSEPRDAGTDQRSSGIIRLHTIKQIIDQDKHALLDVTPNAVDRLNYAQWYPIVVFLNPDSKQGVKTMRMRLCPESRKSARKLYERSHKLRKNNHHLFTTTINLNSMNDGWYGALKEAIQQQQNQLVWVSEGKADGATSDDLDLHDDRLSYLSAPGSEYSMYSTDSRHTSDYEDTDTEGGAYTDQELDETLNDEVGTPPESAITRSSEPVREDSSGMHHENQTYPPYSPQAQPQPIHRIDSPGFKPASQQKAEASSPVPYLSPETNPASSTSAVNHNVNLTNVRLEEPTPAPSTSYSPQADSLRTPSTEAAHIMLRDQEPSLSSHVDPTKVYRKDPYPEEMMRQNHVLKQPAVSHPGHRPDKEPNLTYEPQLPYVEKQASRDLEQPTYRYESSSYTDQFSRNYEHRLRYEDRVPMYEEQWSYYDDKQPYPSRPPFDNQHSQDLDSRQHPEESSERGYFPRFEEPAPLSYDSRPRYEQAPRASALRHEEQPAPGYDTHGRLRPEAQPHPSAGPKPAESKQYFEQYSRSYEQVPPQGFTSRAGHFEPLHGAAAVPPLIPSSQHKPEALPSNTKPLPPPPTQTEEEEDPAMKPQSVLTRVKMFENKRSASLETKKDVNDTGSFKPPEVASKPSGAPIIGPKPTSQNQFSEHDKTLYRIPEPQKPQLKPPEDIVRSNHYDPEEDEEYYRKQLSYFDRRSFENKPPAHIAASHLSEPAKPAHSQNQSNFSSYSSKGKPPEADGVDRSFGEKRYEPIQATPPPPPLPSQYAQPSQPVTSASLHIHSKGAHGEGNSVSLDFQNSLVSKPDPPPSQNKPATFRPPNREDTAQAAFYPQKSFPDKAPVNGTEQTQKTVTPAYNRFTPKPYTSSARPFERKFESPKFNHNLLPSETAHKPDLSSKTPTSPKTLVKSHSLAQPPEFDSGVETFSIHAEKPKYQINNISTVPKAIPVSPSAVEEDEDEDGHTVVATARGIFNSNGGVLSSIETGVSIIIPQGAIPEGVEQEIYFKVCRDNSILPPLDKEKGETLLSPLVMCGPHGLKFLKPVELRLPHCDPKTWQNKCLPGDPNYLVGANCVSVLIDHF", "UniProt Q04637, whole entry": "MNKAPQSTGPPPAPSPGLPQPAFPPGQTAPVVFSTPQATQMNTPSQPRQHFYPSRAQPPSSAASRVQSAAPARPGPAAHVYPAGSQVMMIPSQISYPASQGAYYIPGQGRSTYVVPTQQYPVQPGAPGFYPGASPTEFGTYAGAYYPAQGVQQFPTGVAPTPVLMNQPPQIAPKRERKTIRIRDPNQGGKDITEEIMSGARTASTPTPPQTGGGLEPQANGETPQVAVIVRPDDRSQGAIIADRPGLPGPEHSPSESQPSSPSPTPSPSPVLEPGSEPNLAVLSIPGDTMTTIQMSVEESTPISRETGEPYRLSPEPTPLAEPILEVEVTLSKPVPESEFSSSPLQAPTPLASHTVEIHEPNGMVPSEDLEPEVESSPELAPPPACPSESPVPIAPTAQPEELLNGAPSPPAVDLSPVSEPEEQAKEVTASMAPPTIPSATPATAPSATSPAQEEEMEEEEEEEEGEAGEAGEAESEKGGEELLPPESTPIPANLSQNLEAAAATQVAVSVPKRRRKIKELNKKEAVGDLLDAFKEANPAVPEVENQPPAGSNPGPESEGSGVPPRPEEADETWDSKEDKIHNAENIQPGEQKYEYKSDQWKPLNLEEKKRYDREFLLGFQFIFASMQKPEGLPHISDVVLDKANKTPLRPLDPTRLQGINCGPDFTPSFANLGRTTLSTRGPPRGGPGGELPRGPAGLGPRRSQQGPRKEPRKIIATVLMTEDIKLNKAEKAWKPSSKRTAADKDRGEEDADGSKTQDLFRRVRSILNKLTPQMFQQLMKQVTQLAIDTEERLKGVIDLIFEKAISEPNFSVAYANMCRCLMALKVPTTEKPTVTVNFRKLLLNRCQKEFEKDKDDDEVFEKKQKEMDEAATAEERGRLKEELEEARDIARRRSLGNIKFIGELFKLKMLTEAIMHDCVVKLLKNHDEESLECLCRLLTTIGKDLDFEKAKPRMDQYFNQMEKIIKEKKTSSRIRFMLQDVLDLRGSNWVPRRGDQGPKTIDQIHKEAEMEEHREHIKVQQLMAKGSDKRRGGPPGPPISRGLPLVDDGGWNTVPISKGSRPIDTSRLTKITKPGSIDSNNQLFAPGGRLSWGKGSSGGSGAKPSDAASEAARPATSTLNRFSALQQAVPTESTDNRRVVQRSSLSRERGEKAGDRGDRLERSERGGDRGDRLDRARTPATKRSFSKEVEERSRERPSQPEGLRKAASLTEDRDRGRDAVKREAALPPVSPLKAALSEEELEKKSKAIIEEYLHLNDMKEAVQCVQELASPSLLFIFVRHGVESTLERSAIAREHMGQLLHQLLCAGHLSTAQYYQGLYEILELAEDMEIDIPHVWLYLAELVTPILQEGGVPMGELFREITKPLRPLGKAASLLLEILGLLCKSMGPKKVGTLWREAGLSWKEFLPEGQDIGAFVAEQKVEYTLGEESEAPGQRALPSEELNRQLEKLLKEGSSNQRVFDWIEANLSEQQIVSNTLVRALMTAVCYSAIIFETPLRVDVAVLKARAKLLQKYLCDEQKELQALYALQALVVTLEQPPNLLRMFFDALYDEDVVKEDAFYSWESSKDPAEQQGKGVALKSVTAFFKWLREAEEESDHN", "UniProt Q01664": "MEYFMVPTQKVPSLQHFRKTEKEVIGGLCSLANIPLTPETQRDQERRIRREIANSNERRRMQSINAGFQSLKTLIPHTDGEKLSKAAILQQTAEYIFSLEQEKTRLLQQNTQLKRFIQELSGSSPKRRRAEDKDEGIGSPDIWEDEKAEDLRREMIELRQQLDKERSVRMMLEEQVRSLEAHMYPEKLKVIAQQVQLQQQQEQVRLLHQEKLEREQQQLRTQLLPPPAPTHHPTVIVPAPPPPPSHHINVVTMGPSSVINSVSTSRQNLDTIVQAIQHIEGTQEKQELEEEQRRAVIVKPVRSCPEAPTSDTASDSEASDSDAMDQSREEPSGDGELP"}, "source": "the supplement of paper PMC12819154", "about": "“High-throughput peptide-centric local stability assay extends protein–ligand identification to membrane proteins, tissues and bacteria” (Nature Structural & Molecular Biology, 2025)", "note": "This is one part of the list. Most values lie at the level of the controls, where differences are scatter.", "data": [{"compound": "CN[C@@H]1C[C@H]2O[C@@](C)([C@@H]1OC)n1c3ccccc3c3c4c(c5c6ccccc6n2c5c31)C(=O)NC4 [staurosporine]", "assay": "log2 fold change of tryptic peptide abundance, ligand vs vehicle (limited proteolysis) (log2 ratio); higher = more trypsin-susceptible (destabilized)", "conditions": "ligand concentration: 20 uM; sample: K562 cleared lysate; digestion: 4 min, 22 C (HT-PELSA RT4min, Orbitrap Astral)", "values": [{"target": "EEF1A2 (peptide sequence: GITIDISLWKFETTK, peptide start residue: 70) (UniProt Q05639)", "log2 fold change": 0.239}, {"target": "YWHAH (peptide sequence: YDDMASAMK, peptide start residue: 20) (UniProt Q04917)", "log2 fold change": 0.104}, {"target": "CDR2 (peptide sequence: EIFSCIKK, peptide start residue: 428) (UniProt Q01850)", "log2 fold change": 0.344}, {"target": "NUCB1 (peptide sequence: KLEEQQR, peptide start residue: 205) (UniProt Q02818)", "log2 fold change": 0.256}, {"target": "UniProt Q03181 (peptide sequence: CQCTTVETVR, peptide start residue: 249)", "log2 fold change": 0.303}, {"target": "PITPNA (peptide sequence: MLAPEGALNIHEK, peptide start residue: 74) (UniProt Q00169)", "log2 fold change": -0.206}, {"target": "TRAF2 (peptide sequence: HLEHECPER, peptide start residue: 151) (UniProt Q12933)", "log2 fold change": 0.203}, {"target": "UniProt Q0P5N6 (peptide sequence: EGTGLAGVLAWLQATHR, peptide start residue: 178)", "log2 fold change": -0.206}, {"target": "SP4 (peptide sequence: QHICHIEGCGK, peptide start residue: 646) (UniProt Q02446)", "log2 fold change": 0.455}, {"target": "NCBP1 (peptide sequence: IQKELEEAK, peptide start residue: 655) (UniProt Q09161)", "log2 fold change": 0.459}, {"target": "SLC25A3 (peptide sequence: GVAPLWMR, peptide start residue: 219) (UniProt Q00325)", "log2 fold change": 0.198}, {"target": "UniProt Q08623 (peptide sequence: EELVEESQTK, peptide start residue: 72)", "log2 fold change": 0.0278}, {"target": "UniProt Q05519 (peptide sequence: EIEEAMK, peptide start residue: 218)", "log2 fold change": -0.389}, {"target": "UniProt Q03112 (peptide sequence: GSSESPFDLTTK, peptide start residue: 736)", "log2 fold change": 0.365}, {"target": "TIAL1 (peptide sequence: VNWATTPSSQKK, peptide start residue: 78) (UniProt Q01085)", "log2 fold change": -0.216}, {"target": "UniProt Q06732 (peptide sequence: SSLTVHHR, peptide start residue: 705)", "log2 fold change": 0.231}, {"target": "ARHGAP4 (peptide sequence: TYQAYHMESVNAEAK, peptide start residue: 170) (UniProt P98171)", "log2 fold change": -0.26}, {"target": "ICA1 (peptide sequence: GSTHTACSGPIDELLDMK, peptide start residue: 332) (UniProt Q05084)", "log2 fold change": -0.465}, {"target": "ITK (peptide sequence: AEKLLLDTGK, peptide start residue: 249) (UniProt Q08881)", "log2 fold change": -0.00957}, {"target": "UniProt Q13106 (peptide sequence: VHTGEKPYECTECGK, peptide start residue: 538)", "log2 fold change": -0.136}, {"target": "TLE4 (peptide sequence: SSSVSPSASFR, peptide start residue: 204) (UniProt Q04727)", "log2 fold change": -0.243}, {"target": "FPGS (peptide sequence: IRINGQPISPELFTK, peptide start residue: 140) (UniProt Q05932)", "log2 fold change": -0.538}, {"target": "MEF2A (peptide sequence: YTEYNEPHESR, peptide start residue: 69) (UniProt Q02078)", "log2 fold change": 0.145}, {"target": "ARHGAP1 (peptide sequence: ETVAYLQAHALTTEGIFRR, peptide start residue: 265) (UniProt Q07960)", "log2 fold change": 0.661}, {"target": "ERCC6 (peptide sequence: HLQAILGGAEVK, peptide start residue: 194) (UniProt Q03468)", "log2 fold change": 0.285}, {"target": "DLG1 (peptide sequence: NLSEIENVHGFVSHSHISPIK, peptide start residue: 141) (UniProt Q12959)", "log2 fold change": -0.398}, {"target": "RPL18 (peptide sequence: MKLPGRENK, peptide start residue: 70) (UniProt Q07020)", "log2 fold change": 0.49}, {"target": "TJP1 (peptide sequence: FLKPVELR, peptide start residue: 1707) (UniProt Q07157)", "log2 fold change": 0.224}, {"target": "ZFP36L1 (peptide sequence: CHFIHNAEER, peptide start residue: 173) (UniProt Q07352)", "log2 fold change": -0.254}, {"target": "ZNF816 (peptide sequence: SMMEFSSTR, peptide start residue: 69) (UniProt Q0VGE8)", "log2 fold change": 0.295}, {"target": "SPAG1 (peptide sequence: GQTPEAGADKR, peptide start residue: 407) (UniProt Q07617)", "log2 fold change": 0.296}, {"target": "GOLGA2 (peptide sequence: ERPGLGSNPCIPFFYR, peptide start residue: 975) (UniProt Q08379)", "log2 fold change": 0.292}, {"target": "PPP3CA (peptide sequence: ITSFEEAK, peptide start residue: 467) (UniProt Q08209)", "log2 fold change": -0.083}, {"target": "EIF4G1 (peptide sequence: RGGPPGPPISR, peptide start residue: 1032) (UniProt Q04637)", "log2 fold change": 0.439}, {"target": "FCHO2 (peptide sequence: KTFALPGIIK, peptide start residue: 288) (UniProt Q0JRZ9)", "log2 fold change": -0.471}, {"target": "MRPL28 (peptide sequence: YPVWLWK, peptide start residue: 6) (UniProt Q13084)", "log2 fold change": -0.269}, {"target": "TFAP4 (peptide sequence: AVIVKPVR, peptide start residue: 295) (UniProt Q01664)", "log2 fold change": -0.318}, {"target": "UniProt Q03923 (peptide sequence: IIHTGEKPYKCEECGK, peptide start residue: 337)", "log2 fold change": -0.206}, {"target": "PTPN11 (peptide sequence: FIYMAVQHYIETLQR, peptide start residue: 513) (UniProt Q06124)", "log2 fold change": 0.396}, {"target": "SREBF2 (peptide sequence: AVLLAEAAR, peptide start residue: 1103) (UniProt Q12772)", "log2 fold change": -0.333}]}]}
